Results deposited as PubChem BioAssay AID504786 (Drosophila RNAi Screening Center, 2011)
The screen tested about 21,000 reagents; shown is a random part of those that have a named target and a result. 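Primary screen; positive scores mean lost reporter signal, so the sign may be inverted from the usual convention.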 Reagents against one gene are numbered here. Names joined by + are all predicted targets of the reagent.

- Screen: 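Knock-downs reducing HIF reporter induction by the iron chelator DFO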 (primary screen)
- System: Drosophila S2 cells with a stable HIF luciferase reporter
- Reagents: long dsRNA against Drosophila genes, about 0.2 µg dsRNA per well of a 384-well plate
- Duration: three days of knock-down, then 20 h of DFO before reading
- Treatment: desferrioxamine (DFO) at 100 µM, an iron chelator that mimics hypoxia, for 20 h
- Measurement: 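Firefly luciferase driven by the mouse ldh-a hypoxia-response element, measured after 20 h of 100 µM DFO; z-scores per plate, higher means more signal lost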
- Reading the numbers: z-score: higher = stronger loss of HIF reporter signal

| Gene | reagent | z-score, replicate 1 | z-score, replicate 2 | z-score, replicate 3 | z-score, replicate 4 |
| --- | --- | --- | --- | --- | --- |
| ND2 (retired record) | 1 | -0.1 | -0.4 | – | – |
| CG30467 | 1 | 0 | -0.1 | – | – |
| Dhc64C | 1 | -0.3 | 0.1 | – | – |
| CG10147 | 1 | -0.2 | -0.2 | – | – |
| Sfp38D | 1 | -0.2 | -0.4 | – | – |
| Cpr57A + Obp57d | 1 | -0.1 | -0.4 | – | – |
| Mid1 | 1 | -0.3 | -0.9 | 0.9 | -0.1 |
| Mid1 | 2 | -0.2 | -0.3 | – | – |
| Mid1 | 3 | -0.3 | -0.4 | – | – |
| Nep5 | 1 | -0.3 | -0.4 | – | – |
| Cyp4g15 | 1 | -0.1 | 0 | – | – |
| CG3520 | 1 | -0.3 | -0.4 | – | – |
| CG18278 + CG30059 | 1 | -0.2 | -0.4 | – | – |
| CG33235 | 1 | -0.2 | -0.5 | – | – |
| CG1637 | 1 | -0.3 | -0.4 | – | – |
| CG1637 | 2 | -0.3 | -0.4 | – | – |
| CG1637 | 3 | -0.2 | -0.7 | – | – |
| CG33322 | 1 | -0.3 | -0.3 | – | – |
| CG13919 | 1 | -0.2 | -0.5 | – | – |
| Nlg2 | 1 | -0.4 | -0.6 | – | – |
| CG12479 | 1 | -0.2 | -0.8 | – | – |
| CG3631 | 1 | -0.4 | -0.6 | – | – |
| CG2574 | 1 | -0.1 | 1.7 | – | – |
| CG30380 | 1 | -0.1 | -0.1 | – | – |
| Ir7c | 1 | 0 | 0.7 | – | – |
| CG15239 | 1 | -0.2 | 0.3 | – | – |
| Ptp99A | 1 | -0.1 | -0.2 | -0.3 | -0.2 |
| Ptp99A | 2 | -0.2 | -0.2 | – | – |
| Ptp99A | 3 | -0.6 | -0.3 | – | – |
| Ptp99A | 4 | -0.5 | -0.5 | – | – |
| Ptp99A | 5 | -0.4 | -0.4 | – | – |
| CG7130 | 1 | -0.4 | -0.4 | – | – |
| Pdp1 | 1 | 3.7 | -0.4 | – | – |
| Pdp1 | 2 | 8.6 | -0.8 | – | – |
| Pdp1 | 3 | -0.1 | -0.2 | – | – |
| CG42327 | 1 | 0.7 | 0.3 | – | – |
| CG42327 | 2 | -0.3 | -0.1 | – | – |
| mth | 1 | -0.1 | 0 | – | – |
| CG42500 | 1 | -0.2 | -1.2 | – | – |
| ttk | 1 | -0.3 | 0.1 | – | – |
| ttk | 2 | 2.1 | 0.8 | – | – |
| CG6675 | 1 | -0.3 | -0.4 | – | – |
| CG4679 | 1 | 1.3 | 0.3 | – | – |
| CG34223 | 1 | -0.2 | 0 | – | – |
| mRpL44 | 1 | 0.8 | 0.7 | – | – |
| crb | 1 | -0.2 | -0.1 | – | – |
| Rap1 | 1 | -0.1 | 0.2 | – | – |
| shakB | 1 | 0 | 0.5 | – | – |
| shakB | 2 | -0.1 | 0 | – | – |
| caps | 1 | -0.2 | 0 | – | – |
| ChLD3 | 1 | -0.3 | -0.3 | – | – |
| CG14610 + asRNA:CR42738 | 1 | -0.2 | 0.1 | – | – |
| Pop4 | 1 | -0.1 | -0.1 | – | – |
| CG6696 | 1 | -0.7 | 0 | – | – |
| CG13018 | 1 | 1.2 | 0.5 | – | – |
| Sur-8 | 1 | -0.4 | -0.6 | – | – |
| CG15695 | 1 | 0.9 | 0 | – | – |
| CG13437 | 1 | -0.3 | -0.2 | – | – |
| CG13086 | 1 | -0.3 | -0.5 | – | – |
| CG13319 | 1 | 0.2 | -0.1 | – | – |
| Sec63 | 1 | -0.3 | -0.6 | 0.1 | -0.1 |
| pgc | 1 | -0.1 | -0.1 | – | – |
| MESR4 | 1 | 0.6 | 0.1 | – | – |
| CG14929 + CG4970 | 1 | -0.3 | -0.6 | – | – |
| CG14929 + CG4970 | 2 | -0.4 | 0 | – | – |
| Marc | 1 | -0.2 | -0.2 | – | – |
| Pex12 | 1 | 1 | 2.2 | – | – |
| Sgs5 | 1 | -0.2 | -0.4 | – | – |
| CG14668 | 1 | -0.4 | 0 | – | – |
| CG42336 | 1 | -0.2 | -0.2 | – | – |
| CG42336 | 2 | -0.2 | 0 | – | – |
| CG42336 | 3 | -0.2 | -0.4 | -0.4 | -0.1 |
| PH4alphaNE1 | 1 | -0.3 | -0.1 | – | – |
| CCT7 | 1 | 0.7 | 1.3 | – | – |
| CG5938 | 1 | -0.3 | 0 | – | – |
| SoxN | 1 | -0.3 | -0.9 | -0.3 | 2.2 |
| CG10802 | 1 | -0.2 | -0.2 | – | – |
| CG7707 | 1 | -0.1 | 0.2 | – | – |
| Mt2 | 1 | 1.1 | -0.4 | – | – |
| btv | 1 | 0.1 | -0.1 | – | – |
| btv | 2 | -0.2 | -0.8 | – | – |
| Grl62c | 1 | -0.2 | -0.6 | – | – |
| Cpr65Ay | 1 | -0.1 | 0.3 | – | – |

8 entries from above, limited to “z-score, replicate 1”.
CG14929 + CG4970 #1: -0.3
CG14929 + CG4970 #2: -0.4
Marc: -0.2
Pex12: 1
Sgs5: -0.2
CG14668: -0.4
CG42336 #1: -0.2
CG42336 #2: -0.2
